Some entries repeat one wording, which the source may state once for all of them.
How the values were obtained:
[1] = Reactivity of polymerization initiator composition (1): photopolymerization at 365 nm (LED), reaction conversion by NMR; settings: for Reaction conversion 5 min / Reaction conversion 10 min: 0.15 g component (A), 0.15 g component (B) in 3.0 g butyl acrylate; for Reaction conversion 5 min: 5 min (500 mJ/cm^2); for Reaction conversion 10 min: 10 min (1000 mJ/cm^2); for polymerization reaction / photopolymerization, result in words: butyl acrylate
[2] = Sensitizer test: component (A) with component (C), photopolymerization at 365 nm (LED), reaction conversion by NMR; settings: butyl acrylate (M-1), compounding ratio as in Tables 7A-7C (% by mass); for Reaction conversion 1 min: 1 min (100 mJ/cm^2); for Reaction conversion 2 min: 2 min (200 mJ/cm^2); for Reaction conversion 3 min: 3 min (300 mJ/cm^2)

S=C(c1ccc(-c2ccccc2)cc1)c1ccc(-c2ccccc2)cc1 [A-1, 4,4'-Diphenylthiobenzophenone]
Reaction conversion 5 min [1]: 0%
Reaction conversion 10 min [1]: 0%
polymerization reaction / photopolymerization, result in words [1]: did not proceed

CC(C)c1ccc(Sc2ccc(C(=O)c3ccc(Sc4ccc(C(C)C)cc4)cc3)cc2)cc1 [A-3, 4,4'-Bis(p-isopropylphenylthio)benzophenone]
polymerization reaction / photopolymerization, result in words [1]: proceeded more efficiently

CC(C)(C)c1ccc(Sc2ccc(C(=O)c3ccc(Sc4ccc(C(C)(C)C)cc4)cc3)cc2)cc1 [A-4, 4,4'-Bis(p-tert-butylphenylthio)benzophenone]
polymerization reaction / photopolymerization, result in words [1]: proceeded more efficiently

Cc1cc(C(C)(C)C)ccc1Sc1ccc(C(=O)c2ccc(Sc3ccc(C(C)(C)C)cc3C)cc2)cc1 [A-9, 4,4'-Dithio(4-tert-butyl-2-methylphenyl)benzophenone]
polymerization reaction / photopolymerization, result in words [1]: proceeded more efficiently

Cc1ccc(Sc2ccc(C(=O)c3ccc(Sc4ccc(C)cc4C)cc3)cc2)c(C)c1 [A-11, 4,4'-Dithio(2,4-dimethylphenyl)benzophenone]
polymerization reaction / photopolymerization, result in words [1]: proceeded more efficiently

Cc1ccc(C)c(Sc2ccc(C(=O)c3ccc(Sc4cc(C)ccc4C)cc3)cc2)c1 [A-12, 4,4'-Dithio(2,5-dimethylphenyl)benzophenone]
polymerization reaction / photopolymerization, result in words [1]: proceeded more efficiently

CCOC(=O)c1ccc(N(C)C)cc1 [B-1]
Reaction conversion 5 min [1]: 0%
Reaction conversion 10 min [1]: 0%
polymerization reaction / photopolymerization, result in words [1]: did not proceed

COC(OC)(C(=O)c1ccccc1)c1ccccc1 [C-1]
Reaction conversion 1 min [2]: 54%
Reaction conversion 2 min [2]: 70%
Reaction conversion 3 min [2]: 72%

CCC(Cc1ccccc1)(C(=O)c1ccc(N2CCOCC2)cc1)N(C)C (centres unmarked) [C-3]
Reaction conversion 1 min [2]: 29%
Reaction conversion 2 min [2]: 37%
Reaction conversion 3 min [2]: 48%

CSc1ccc(C(=O)C(C)(C)N2CCOCC2)cc1 [C-4]
Reaction conversion 1 min [2]: 20%
Reaction conversion 2 min [2]: 28%
Reaction conversion 3 min [2]: 30%

Cc1cc(C)c(C(=O)P(=O)(C(=O)c2c(C)cc(C)cc2C)c2ccccc2)c(C)c1 [C-5]
Reaction conversion 1 min [2]: 77%
Reaction conversion 2 min [2]: 77%
Reaction conversion 3 min [2]: 93%

Cc1cc(C)c(C(=O)P(=O)(c2ccccc2)c2ccccc2)c(C)c1 [C-6]
Reaction conversion 1 min [2]: 55%
Reaction conversion 2 min [2]: 63%
Reaction conversion 3 min [2]: 78%

Source: EP4748864A1, “POLYMERIZATION INITIATOR OR PHOTOSENSITIZER, POLYMERIZATION INITIATION COMPOSITION, AND METHOD FOR PRODUCING RESIN” (Miyoshi Oil & Fat Co., Ltd., priority 2023, dated 2025)
